# Source: the supplement of paper PMC8728848
# The other results are listed elsewhere or left out.
# B1: RbmA (Vibrio cholerae), A0A2H4NFB8 (protein)
# chain: MSNFKGSIMNKRHYYLASCLALLFSTASYAEVDCELQPVIEANLSLNQNQLASNGGYISSQLGIRNESCETVKFKYWLSIKGPEGIYFPAKAVVGVDTAQQESDALTDGRMLNVTRGFWVPEYMADGKYTVSLQVVAENGEVFKANQEFVKGGDLNSLPELNGLTIDIKNQFGINSVESTGGFVPFTIDLNNGREGEAKVEFWMTAVGPDGLIIPVHSREKWMIIAGNTFSKVRGINFDKSYPAGEYTINAQVVDIVSGERVEQLMTVVKK
# Tests used:
# Test in all cases: glycan array binding signal (z-score within array); higher = stronger binding
# Conditions in all cases: glycan notation: IUPAC condensed, linker removed
# Neu5Ac(a2-6)Gal = target: Neu5Ac(a2-6)Gal
# Summary of the method: (§1)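 Glycan array data came from 3228 arrays in the Consortium for Functional Glycomics database, and only arrays with an available protein sequence were kept. Glycan names were put into IUPAC-condensed notation, and columns mapping to the same glycan were averaged. The binding signal is a within-array Z-score, averaged across arrays of one protein sequence run at different concentrations or buffers and across linkers. A negative Z-score can be read as non-binding.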
# [1] = target: Neu5Ac(a2-6)Gal(b1-3)GlcNAc(b1-3)[Gal(b1-4)GlcNAc(b1-6)]Gal(b1-4)Glc
# Summary of the method: as §1
# Neu5Ac(a2-6)Gal(b1-4)Glc = target: Neu5Ac(a2-6)Gal(b1-4)Glc
# Summary of the method: as §1
# [2] = target: Neu5Ac(a2-6)Gal(b1-4)GlcNAc
# Summary of the method: as §1
# [3] = target: Neu5Ac(a2-6)Gal(b1-4)GlcNAc(b1-2)Man
# Summary of the method: as §1
# [4] = target: Neu5Ac(a2-6)Gal(b1-4)GlcNAc(b1-2)Man(a1-3)Man(b1-4)GlcNAc(b1-4)GlcNAc
# Summary of the method: as §1
# [5] = target: Neu5Ac(a2-6)Gal(b1-4)GlcNAc(b1-2)Man(a1-3)[Gal(b1-4)GlcNAc(b1-2)Man(a1-6)]Man(b1-4)GlcNAc(b1-4)GlcNAc
# Summary of the method: as §1
# [6] = target: Neu5Ac(a2-6)Gal(b1-4)GlcNAc(b1-2)Man(a1-3)[GlcNAc(b1-2)Man(a1-6)]Man(b1-4)GlcNAc(b1-4)GlcNAc
# Summary of the method: as §1
# [7] = target: Neu5Ac(a2-6)Gal(b1-4)GlcNAc(b1-2)Man(a1-3)[GlcNAc(b1-4)][Neu5Ac(a2-6)Gal(b1-4)GlcNAc(b1-2)Man(a1-6)]Man(b1-4)GlcNAc(b1-4)GlcNAc
# Summary of the method: as §1
# [8] = target: Neu5Ac(a2-6)Gal(b1-4)GlcNAc(b1-2)Man(a1-3)[Man(a1-6)]Man(b1-4)GlcNAc(b1-4)GlcNAc
# Summary of the method: as §1
# [9] = target: Neu5Ac(a2-6)Gal(b1-4)GlcNAc(b1-2)Man(a1-3)[Neu5Ac(a2-3)Gal(b1-4)GlcNAc(b1-2)Man(a1-6)]Man(b1-4)GlcNAc(b1-4)GlcNAc
# Summary of the method: as §1
# [10] = target: Neu5Ac(a2-6)Gal(b1-4)GlcNAc(b1-2)Man(a1-3)[Neu5Ac(a2-6)Gal(b1-4)GlcNAc(b1-2)Man(a1-6)]Man(b1-4)GlcNAc(b1-4)GlcNAc
# Summary of the method: as §1
# [11] = target: Neu5Ac(a2-6)Gal(b1-4)GlcNAc(b1-2)Man(a1-3)[Neu5Ac(a2-6)Gal(b1-4)GlcNAc(b1-2)Man(a1-6)]Man(b1-4)GlcNAc(b1-4)[Fuc(a1-6)]GlcNAc
# Summary of the method: as §1
# [12] = target: Neu5Ac(a2-6)Gal(b1-4)GlcNAc(b1-2)Man(a1-6)Man(b1-4)GlcNAc(b1-4)GlcNAc
# Summary of the method: as §1
# [13] = target: Neu5Ac(a2-6)Gal(b1-4)GlcNAc(b1-2)Man(a1-6)[Gal(b1-4)GlcNAc(b1-2)Man(a1-3)]Man(b1-4)GlcNAc(b1-4)GlcNAc
# Summary of the method: as §1
# [14] = target: Neu5Ac(a2-6)Gal(b1-4)GlcNAc(b1-2)Man(a1-6)[GlcNAc(b1-2)Man(a1-3)]Man(b1-4)GlcNAc(b1-4)GlcNAc
# Summary of the method: as §1
# [15] = target: Neu5Ac(a2-6)Gal(b1-4)GlcNAc(b1-2)Man(a1-6)[Man(a1-3)]Man(b1-4)GlcNAc(b1-4)GlcNAc
# Summary of the method: as §1
# [16] = target: Neu5Ac(a2-6)Gal(b1-4)GlcNAc(b1-2)[Neu5Ac(a2-6)Gal(b1-4)GlcNAc(b1-4)]Man(a1-3)[GlcNAc(b1-4)][Neu5Ac(a2-6)Gal(b1-4)GlcNAc(b1-4)Man(a1-6)]Man(b1-4)GlcNAc(b1-4)GlcNAc
# Summary of the method: as §1
# [17] = target: Neu5Ac(a2-6)Gal(b1-4)GlcNAc(b1-2)[Neu5Ac(a2-6)Gal(b1-4)GlcNAc(b1-6)]Man(a1-6)[Neu5Ac(a2-6)Gal(b1-4)GlcNAc(b1-2)Man(a1-3)][GlcNAc(b1-4)]Man(b1-4)GlcNAc(b1-4)GlcNAc
# Summary of the method: as §1
# [18] = target: Neu5Ac(a2-6)Gal(b1-4)GlcNAc(b1-3)Gal(b1-3)GlcNAc
# Summary of the method: as §1
# [19] = target: Neu5Ac(a2-6)Gal(b1-4)GlcNAc(b1-3)Gal(b1-4)GlcNAc
# Summary of the method: as §1
# [20] = target: Neu5Ac(a2-6)Gal(b1-4)GlcNAc(b1-3)Gal(b1-4)GlcNAc(b1-2)Man(a1-3)[Neu5Ac(a2-6)Gal(b1-4)GlcNAc(b1-3)Gal(b1-4)GlcNAc(b1-2)Man(a1-6)]GalNAc
# Summary of the method: as §1
# [21] = target: Neu5Ac(a2-6)Gal(b1-4)GlcNAc(b1-3)Gal(b1-4)GlcNAc(b1-3)Gal(b1-4)GlcNAc
# Summary of the method: as §1
# [22] = target: Neu5Ac(a2-6)Gal(b1-4)GlcNAc(b1-3)Gal(b1-4)GlcNAc(b1-3)Gal(b1-4)GlcNAc(b1-2)Man(a1-3)[Neu5Ac(a2-6)Gal(b1-4)GlcNAc(b1-3)Gal(b1-4)GlcNAc(b1-3)Gal(b1-4)GlcNAc(b1-2)Man(a1-6)]GalNAc
# Summary of the method: as §1
# [23] = target: Neu5Ac(a2-6)Gal(b1-4)GlcNAc(b1-3)Gal(b1-4)GlcNAc(b1-3)GalNAc
# Summary of the method: as §1
# [24] = target: Neu5Ac(a2-6)Gal(b1-4)GlcNAc(b1-3)Gal(b1-4)GlcNAc(b1-3)[Neu5Ac(a2-6)Gal(b1-4)GlcNAc(b1-3)Gal(b1-4)GlcNAc(b1-6)]GalNAc
# Summary of the method: as §1
# [25] = target: Neu5Ac(a2-6)Gal(b1-4)GlcNAc(b1-3)Gal(b1-4)GlcNAc(b1-6)[Gal(b1-3)]GalNAc
# Summary of the method: as §1
# [26] = target: Neu5Ac(a2-6)Gal(b1-4)GlcNAc(b1-3)Gal(b1-4)[Fuc(a1-3)]GlcNAc(b1-3)Gal(b1-4)[Fuc(a1-3)]GlcNAc
# Summary of the method: as §1
# [27] = target: Neu5Ac(a2-6)Gal(b1-4)GlcNAc(b1-3)GalNAc
# Summary of the method: as §1
# [28] = target: Neu5Ac(a2-6)Gal(b1-4)GlcNAc(b1-3)[Neu5Ac(a2-6)Gal(b1-4)GlcNAc(b1-6)]GalNAc
# Summary of the method: as §1
# [29] = target: Neu5Ac(a2-6)Gal(b1-4)GlcNAc(b1-6)GalNAc
# Summary of the method: as §1
# [30] = target: Neu5Ac(a2-6)Gal(b1-4)GlcNAc(b1-6)[Gal(b1-3)GlcNAc(b1-3)]Gal(b1-4)Glc
# Summary of the method: as §1
# [31] = target: Neu5Ac(a2-6)Gal(b1-4)GlcNAc(b1-6)[Gal(b1-3)]GalNAc
# Summary of the method: as §1
# [32] = target: Neu5Ac(a2-6)Gal(b1-4)GlcNAc6S
# Summary of the method: as §1
# Neu5Ac(a2-6)GalNAc = target: Neu5Ac(a2-6)GalNAc
# Summary of the method: as §1
# [33] = target: Neu5Ac(a2-6)GalNAc(b1-4)GlcNAc
# Summary of the method: as §1
# [34] = target: Neu5Ac(a2-6)GalNAc(b1-4)GlcNAc6S
# Summary of the method: as §1
# [35] = target: Neu5Ac(a2-6)GlcNAc(b1-4)GlcNAc
# Summary of the method: as §1
binder,measurement,setting,value
B1,glycan array binding signal (z-score),Neu5Ac(a2-6)Gal,-1.27
same,glycan array binding signal (z-score),[1],2.25
same,glycan array binding signal (z-score),Neu5Ac(a2-6)Gal(b1-4)Glc,-0.776
same,glycan array binding signal (z-score),[2],-0.509
same,glycan array binding signal (z-score),[3],-0.131
same,glycan array binding signal (z-score),[4],-0.663
same,glycan array binding signal (z-score),[5],-1.26
same,glycan array binding signal (z-score),[6],-1
same,glycan array binding signal (z-score),[7],0.273
same,glycan array binding signal (z-score),[8],-0.05
same,glycan array binding signal (z-score),[9],0.136
same,glycan array binding signal (z-score),[10],0.76
same,glycan array binding signal (z-score),[11],-0.43
same,glycan array binding signal (z-score),[12],-0.641
same,glycan array binding signal (z-score),[13],-0.289
same,glycan array binding signal (z-score),[14],-0.799
same,glycan array binding signal (z-score),[15],-0.765
same,glycan array binding signal (z-score),[16],0.66
same,glycan array binding signal (z-score),[17],0.105
same,glycan array binding signal (z-score),[18],-0.286
same,glycan array binding signal (z-score),[19],-0.225
same,glycan array binding signal (z-score),[20],-0.252
same,glycan array binding signal (z-score),[21],-0.863
same,glycan array binding signal (z-score),[22],1.63
same,glycan array binding signal (z-score),[23],-0.751
same,glycan array binding signal (z-score),[24],-0.527
same,glycan array binding signal (z-score),[25],2.28
same,glycan array binding signal (z-score),[26],-0.237
same,glycan array binding signal (z-score),[27],-0.582
same,glycan array binding signal (z-score),[28],1.76
same,glycan array binding signal (z-score),[29],-0.899
same,glycan array binding signal (z-score),[30],-0.069
same,glycan array binding signal (z-score),[31],-0.803
same,glycan array binding signal (z-score),[32],1.46
same,glycan array binding signal (z-score),Neu5Ac(a2-6)GalNAc,-1.65
same,glycan array binding signal (z-score),[33],1.39
same,glycan array binding signal (z-score),[34],-0.066
same,glycan array binding signal (z-score),[35],-0.396

# Shown bar-delimited: part of the list above.
binder | measurement | setting | value
B1 | glycan array binding signal (z-score) | [11] | -0.43
same | glycan array binding signal (z-score) | [28] | 1.76
